Here are results for four substances from doi:10.1101/2020.08.13.249276.

Amino acid sequences for entries named in this document (tags omitted). A change or cut given only in a name is not applied to a line headed by its entry.
UniProt F4J8D3: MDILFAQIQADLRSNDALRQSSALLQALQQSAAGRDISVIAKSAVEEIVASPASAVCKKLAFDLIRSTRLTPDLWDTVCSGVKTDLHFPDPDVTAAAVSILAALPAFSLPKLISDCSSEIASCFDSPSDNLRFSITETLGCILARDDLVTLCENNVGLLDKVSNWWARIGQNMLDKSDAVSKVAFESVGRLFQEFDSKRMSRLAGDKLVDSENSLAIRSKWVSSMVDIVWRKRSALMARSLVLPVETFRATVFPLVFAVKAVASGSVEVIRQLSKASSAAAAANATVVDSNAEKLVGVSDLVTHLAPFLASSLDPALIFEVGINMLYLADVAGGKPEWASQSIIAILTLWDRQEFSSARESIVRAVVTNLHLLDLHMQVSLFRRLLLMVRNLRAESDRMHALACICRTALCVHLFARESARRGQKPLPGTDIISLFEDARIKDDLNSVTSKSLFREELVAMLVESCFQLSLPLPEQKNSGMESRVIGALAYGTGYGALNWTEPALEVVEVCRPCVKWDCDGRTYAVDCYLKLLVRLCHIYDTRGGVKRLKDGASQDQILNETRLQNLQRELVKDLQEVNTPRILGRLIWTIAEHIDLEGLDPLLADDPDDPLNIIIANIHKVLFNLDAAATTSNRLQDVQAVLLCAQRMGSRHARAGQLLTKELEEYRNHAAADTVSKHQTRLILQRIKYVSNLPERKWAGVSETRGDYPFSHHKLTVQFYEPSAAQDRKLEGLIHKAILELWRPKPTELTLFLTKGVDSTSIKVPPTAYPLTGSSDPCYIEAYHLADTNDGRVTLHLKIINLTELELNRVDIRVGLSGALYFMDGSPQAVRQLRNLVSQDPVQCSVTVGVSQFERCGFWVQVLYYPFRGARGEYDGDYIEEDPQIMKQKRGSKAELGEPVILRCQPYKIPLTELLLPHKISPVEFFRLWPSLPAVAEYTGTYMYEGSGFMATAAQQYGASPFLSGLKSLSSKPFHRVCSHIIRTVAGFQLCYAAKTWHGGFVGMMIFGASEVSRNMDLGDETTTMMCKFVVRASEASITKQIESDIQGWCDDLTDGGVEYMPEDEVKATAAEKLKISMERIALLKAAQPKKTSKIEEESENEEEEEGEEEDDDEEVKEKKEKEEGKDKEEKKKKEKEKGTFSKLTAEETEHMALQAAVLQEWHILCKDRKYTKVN
UniProt F4KIH8: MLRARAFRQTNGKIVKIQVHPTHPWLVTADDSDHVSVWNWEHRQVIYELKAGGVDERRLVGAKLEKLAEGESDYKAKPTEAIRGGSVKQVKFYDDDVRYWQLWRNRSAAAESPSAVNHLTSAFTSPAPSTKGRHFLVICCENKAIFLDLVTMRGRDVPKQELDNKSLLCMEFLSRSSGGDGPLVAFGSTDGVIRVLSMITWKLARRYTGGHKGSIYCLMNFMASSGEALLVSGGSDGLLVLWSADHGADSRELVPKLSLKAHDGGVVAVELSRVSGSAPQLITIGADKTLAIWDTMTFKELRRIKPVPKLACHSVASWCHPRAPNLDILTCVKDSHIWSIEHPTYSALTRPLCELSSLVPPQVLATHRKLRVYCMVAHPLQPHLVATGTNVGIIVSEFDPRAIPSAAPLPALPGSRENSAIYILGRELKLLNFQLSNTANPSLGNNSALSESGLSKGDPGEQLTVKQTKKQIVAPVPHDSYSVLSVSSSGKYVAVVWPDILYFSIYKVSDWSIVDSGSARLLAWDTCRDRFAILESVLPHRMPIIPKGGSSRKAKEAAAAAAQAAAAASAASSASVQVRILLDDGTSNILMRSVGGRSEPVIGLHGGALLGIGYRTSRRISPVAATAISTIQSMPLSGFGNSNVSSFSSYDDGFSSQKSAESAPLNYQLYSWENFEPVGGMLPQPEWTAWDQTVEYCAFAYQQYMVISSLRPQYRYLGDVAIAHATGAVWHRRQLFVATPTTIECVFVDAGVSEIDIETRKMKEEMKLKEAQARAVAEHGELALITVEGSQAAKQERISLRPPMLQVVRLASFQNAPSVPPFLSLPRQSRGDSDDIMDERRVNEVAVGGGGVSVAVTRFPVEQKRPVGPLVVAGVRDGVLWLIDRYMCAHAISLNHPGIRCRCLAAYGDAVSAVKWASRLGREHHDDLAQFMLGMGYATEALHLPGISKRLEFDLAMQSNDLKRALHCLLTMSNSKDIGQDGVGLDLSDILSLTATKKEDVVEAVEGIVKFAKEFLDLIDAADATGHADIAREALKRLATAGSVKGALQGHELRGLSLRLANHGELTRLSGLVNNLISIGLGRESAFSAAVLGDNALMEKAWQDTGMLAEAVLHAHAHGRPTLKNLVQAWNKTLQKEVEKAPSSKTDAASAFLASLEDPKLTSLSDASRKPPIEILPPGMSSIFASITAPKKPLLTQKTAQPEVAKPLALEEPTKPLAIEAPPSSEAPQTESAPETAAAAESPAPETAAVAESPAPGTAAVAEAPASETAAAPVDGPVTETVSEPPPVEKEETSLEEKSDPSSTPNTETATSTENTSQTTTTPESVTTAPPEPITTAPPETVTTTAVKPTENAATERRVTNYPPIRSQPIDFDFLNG

No constants are given. Whether binding was seen depends on the method and setting. In cells and extracts the contact can be indirect. A yes stands for co-enrichment or nearness to the bait. Other partners may have been found.

One assay has as its target TML-GS (Arabidopsis) (UniProt Q9FKM4). Nature of the assay: affinity purification with mass spectrometry.
The target in assay [1] is AtEH1/Pan1-GS (Arabidopsis) (UniProt F4HUN9). Nature of the assay: affinity purification with mass spectrometry.

Regarding AtEH1/Pan1 (from UniProt F4HUN9), in the assay with TML-GS (Arabidopsis), the binding result is listed as “binds”.

With LOLITA (from UniProt Q9XI32), the binding entry (in assay [1]; with TML-GS (Arabidopsis)) was “binds” throughout.

For the substance TPLATE (from UniProt F4J8D3 1-1176), the binding result (in assay [1]; in the assay with TML-GS (Arabidopsis)) was “binds” throughout.

TWD40-2 (from UniProt F4KIH8): the binding result (in assay [1]; with TML-GS (Arabidopsis)) was “binds” each time.
